Source: patent publication US20060057138A1 (published 2006)
These are yes or no findings as the source states them, for the method shown. Some binding calls cover weakened binding; strength is not graded here.

Chains of the proteins cited; added tags and fusions are not shown. Lines headed by an entry give the natural chain unless they say otherwise; changes in a name come on top. Residues count along the entry.
UniProt P35590: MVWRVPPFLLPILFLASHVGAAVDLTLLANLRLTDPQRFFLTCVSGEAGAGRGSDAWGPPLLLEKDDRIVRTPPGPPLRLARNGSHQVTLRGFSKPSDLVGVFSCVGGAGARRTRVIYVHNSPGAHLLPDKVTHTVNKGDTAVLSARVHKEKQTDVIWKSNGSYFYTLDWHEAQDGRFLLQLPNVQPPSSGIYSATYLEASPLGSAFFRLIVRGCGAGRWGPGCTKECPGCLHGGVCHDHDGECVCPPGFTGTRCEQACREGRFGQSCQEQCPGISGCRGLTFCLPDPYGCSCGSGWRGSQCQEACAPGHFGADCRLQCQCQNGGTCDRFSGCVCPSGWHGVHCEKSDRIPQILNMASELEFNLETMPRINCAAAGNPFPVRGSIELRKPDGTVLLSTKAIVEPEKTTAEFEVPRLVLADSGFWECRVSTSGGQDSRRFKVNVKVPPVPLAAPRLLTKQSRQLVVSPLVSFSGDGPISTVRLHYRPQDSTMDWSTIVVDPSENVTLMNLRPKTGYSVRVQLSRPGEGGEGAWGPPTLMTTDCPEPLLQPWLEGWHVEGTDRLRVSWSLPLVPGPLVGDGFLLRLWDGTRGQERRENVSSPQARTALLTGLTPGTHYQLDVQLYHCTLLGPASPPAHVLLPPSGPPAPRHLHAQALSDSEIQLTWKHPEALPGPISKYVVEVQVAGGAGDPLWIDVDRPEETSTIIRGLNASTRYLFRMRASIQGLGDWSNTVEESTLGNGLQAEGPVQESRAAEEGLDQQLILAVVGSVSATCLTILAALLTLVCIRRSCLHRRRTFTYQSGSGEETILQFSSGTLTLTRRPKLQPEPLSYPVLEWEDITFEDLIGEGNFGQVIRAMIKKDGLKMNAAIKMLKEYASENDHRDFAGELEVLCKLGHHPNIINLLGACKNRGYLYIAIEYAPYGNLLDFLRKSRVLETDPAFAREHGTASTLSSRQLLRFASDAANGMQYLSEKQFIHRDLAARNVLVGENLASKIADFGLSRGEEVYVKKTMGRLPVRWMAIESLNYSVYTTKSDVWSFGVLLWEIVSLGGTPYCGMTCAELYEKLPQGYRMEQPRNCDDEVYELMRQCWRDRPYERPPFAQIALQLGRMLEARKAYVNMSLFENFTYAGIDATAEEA
UniProt Q06806, residues 23-1134: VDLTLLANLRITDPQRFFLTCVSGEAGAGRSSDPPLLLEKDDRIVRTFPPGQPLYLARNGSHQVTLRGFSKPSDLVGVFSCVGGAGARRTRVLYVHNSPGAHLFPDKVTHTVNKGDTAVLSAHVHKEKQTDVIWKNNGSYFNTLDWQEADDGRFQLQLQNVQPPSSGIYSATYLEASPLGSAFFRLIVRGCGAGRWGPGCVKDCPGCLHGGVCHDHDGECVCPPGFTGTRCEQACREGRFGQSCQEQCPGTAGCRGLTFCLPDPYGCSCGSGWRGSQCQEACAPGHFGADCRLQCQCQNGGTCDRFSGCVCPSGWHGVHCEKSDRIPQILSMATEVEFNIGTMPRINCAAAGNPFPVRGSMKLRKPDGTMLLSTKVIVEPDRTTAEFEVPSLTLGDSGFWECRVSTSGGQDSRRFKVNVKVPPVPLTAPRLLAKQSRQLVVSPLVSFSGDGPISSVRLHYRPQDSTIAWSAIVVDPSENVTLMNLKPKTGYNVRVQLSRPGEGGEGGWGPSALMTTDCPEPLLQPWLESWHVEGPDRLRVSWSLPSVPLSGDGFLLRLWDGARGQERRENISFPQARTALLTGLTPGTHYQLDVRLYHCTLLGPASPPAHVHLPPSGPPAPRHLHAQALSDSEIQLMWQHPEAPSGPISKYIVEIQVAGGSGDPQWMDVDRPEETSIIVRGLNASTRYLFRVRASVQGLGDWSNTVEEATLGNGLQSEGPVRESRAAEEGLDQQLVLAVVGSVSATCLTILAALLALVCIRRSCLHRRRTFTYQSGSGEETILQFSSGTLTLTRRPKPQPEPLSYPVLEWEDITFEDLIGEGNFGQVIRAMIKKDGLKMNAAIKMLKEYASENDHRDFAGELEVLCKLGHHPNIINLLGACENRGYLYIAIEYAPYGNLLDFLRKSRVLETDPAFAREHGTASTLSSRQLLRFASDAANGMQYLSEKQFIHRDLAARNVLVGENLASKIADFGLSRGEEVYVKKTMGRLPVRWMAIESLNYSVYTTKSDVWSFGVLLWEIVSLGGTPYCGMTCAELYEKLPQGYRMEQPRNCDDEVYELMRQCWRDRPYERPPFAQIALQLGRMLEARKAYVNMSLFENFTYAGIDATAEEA

Tests used:
[1] = molecular target: recombinant human Tie1-Fc (Tie1 extracellular domain fused to human Fc) (human) (UniProt P35590); test: SPR (BIAcore), IgG coupled on CM5 chip, Tie1/Fc 12.5-200 nM as analyte
[2] = molecular target: Tie1 (human, endogenous) (human) (UniProt P35590); test: immunohistochemistry, human lung and lung carcinoma
[3] = molecular target: Tie1 (human, endogenous) (human) (UniProt P35590); test: immunoprecipitation from HUVEC lysate, Western blot with goat anti-Tie1
[4] = molecular target: Tie1 (human, endogenous) (human) (UniProt P35590); test: confocal microscopy, biotinylated antibody (10 µg/ml) on fixed HUVEC
[5] = molecular target: Tie1 (human, endogenous) (human) (UniProt P35590); test: immunohistochemistry, human breast
[6] = molecular target: Tie1 (human, endogenous) (human) (UniProt P35590); test: WB, HDMEC
[7] = molecular target: Tie1 (human, endogenous) (human) (UniProt P35590); test: immunohistochemistry, human kidney
[8] = molecular target: V5-tagged full length human Tie1 (pcDNA3-Tie1-V5) expressed in COS1 cells (human) (UniProt P35590); test: IF, COS1 cells transfected with Tie1-V5
[9] = molecular target: Tie1 (human, endogenous) (human) (UniProt P35590); test: WB, IP and IF on Tie1-V5 COS1 cells and primary endothelial cells
[10] = molecular target: V5-tagged full length human Tie1 (pcDNA3-Tie1-V5) expressed in COS1 cells (human) (UniProt P35590); test: as above
[11] = molecular target: Tie1 (human, endogenous) (human) (UniProt P35590); test: IF, HDMEC
[12] = molecular target: V5-tagged full length human Tie1 (pcDNA3-Tie1-V5) expressed in COS1 cells (human) (UniProt P35590); test: WB, COS1 cells transfected with Tie1-V5
[13] = molecular target: Tie1 (human, endogenous) (human) (UniProt P35590); test: immunohistochemistry, biotinylated E3 IgG1 (a,z allotype), 10 µg/ml, on formalin-fixed SW480 xenograft sections
[14] = molecular target: mouse Tie1 on mouse endothelial cells (mouse) (UniProt Q06806); test: as above
[15] = molecular target: Tie1 (human, endogenous) (human) (UniProt P35590); test: immunohistochemistry, biotinylated IgG on frozen human tissue sections
[16] = molecular target: Tie1 (human, endogenous) (human) (UniProt P35590); test: immunohistochemistry, normal human skin

Measured: binding

B1: E3 IgG (parental anti-Tie1 antibody E3) (antibody, V domains shown)
VH: EVQLLESGGGLVQPGGSLRLSCAASGFTFSMYGMVWVRQAPGKGLEWVSVISPSGGNTGYADSVKGRFTISRDNSKNTLYLQVNSLRAEDTAVYYCARAPRGYSYGYYYWGQGTLVTVSS
VL: DIQMTQSPLSLSASVGDRVTITCRASQGIGHYLAWYQQKPGKVPKLLIYTASTLQSGVPSRFSGSGSGTDFTLTINSLQPEDVATYYCQQFNSYPHTFGQGTRLDIK
binds: all assays above
